Data taken from paper PMC11984394.
These are yes or no findings as the source states them, for the method shown. Binding seen in cells or lysates may run through a third protein. A yes stands for co-enrichment or nearness to the bait. Other partners may have been found.

Chains of the proteins cited; added tags and fusions are not shown. Residues count along the entry.
UniProt P21802, residues 22-821: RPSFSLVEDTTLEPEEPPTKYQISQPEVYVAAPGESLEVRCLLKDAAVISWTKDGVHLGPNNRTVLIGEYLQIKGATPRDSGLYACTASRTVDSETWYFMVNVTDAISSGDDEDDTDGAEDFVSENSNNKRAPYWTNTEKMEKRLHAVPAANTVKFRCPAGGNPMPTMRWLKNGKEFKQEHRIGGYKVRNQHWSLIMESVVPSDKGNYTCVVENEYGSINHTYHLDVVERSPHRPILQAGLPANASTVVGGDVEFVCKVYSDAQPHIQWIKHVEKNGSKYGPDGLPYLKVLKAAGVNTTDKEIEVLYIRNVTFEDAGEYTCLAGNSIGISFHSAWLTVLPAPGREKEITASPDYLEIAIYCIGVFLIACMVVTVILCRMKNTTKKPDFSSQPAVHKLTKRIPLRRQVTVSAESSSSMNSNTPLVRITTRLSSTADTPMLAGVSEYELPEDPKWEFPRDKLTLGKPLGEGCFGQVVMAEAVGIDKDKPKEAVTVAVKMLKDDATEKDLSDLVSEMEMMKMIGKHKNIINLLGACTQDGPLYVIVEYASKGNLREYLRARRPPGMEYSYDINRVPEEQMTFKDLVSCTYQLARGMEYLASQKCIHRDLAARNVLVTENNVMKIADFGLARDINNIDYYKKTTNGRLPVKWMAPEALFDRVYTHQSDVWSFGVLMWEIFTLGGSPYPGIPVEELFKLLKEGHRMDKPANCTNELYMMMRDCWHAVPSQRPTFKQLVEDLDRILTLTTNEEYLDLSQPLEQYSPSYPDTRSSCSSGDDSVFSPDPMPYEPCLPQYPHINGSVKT

Molecular target: T1, recombinant human SFRP1 protein (human) (UniProt Q8N474)
T1 sequence: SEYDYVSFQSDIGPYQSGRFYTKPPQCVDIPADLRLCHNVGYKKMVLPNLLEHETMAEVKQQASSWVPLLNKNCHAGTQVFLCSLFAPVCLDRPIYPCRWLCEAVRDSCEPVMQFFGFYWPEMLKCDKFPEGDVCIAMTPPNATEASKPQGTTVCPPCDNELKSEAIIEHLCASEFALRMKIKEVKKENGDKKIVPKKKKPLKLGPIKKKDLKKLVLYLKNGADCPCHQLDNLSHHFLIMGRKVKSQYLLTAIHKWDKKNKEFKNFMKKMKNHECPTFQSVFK
Experiment: affinity purification with mass spectrometry; rhSFRP1 added to 7 x 10^6 SW480 cells for 48 h; IP with 10 ug SFRP1-specific antibody or species-matched normal IgG (Pierce Crosslink Magnetic IP/Co-IP Kit); SDS-PAGE, silver staining, bands excised and analysed by MS; only the target purified

binding: binds
Substance: FGFR2 receptor (from UniProt P21802 22-821)
